Experimental data from patent publication US20260167673A1, “NOVEL POLYPEPTIDE, POLYPEPTIDE DERIVATIVE AND USE THEREOF” (NANJING ANJI BIOTECHNOLOGY CO., LTD., priority 2023, published 2026).
Not every detail of the peptide structures is certain; ends, links or a residue may be inferred. Marks after values point to notes of the source that are not given here. Where no end group is shown, it is not given here.

Legend:
Type in all cases: cell-based
[1] = tested on: human tongue squamous cell carcinoma cells CAL27; test: CCK8 proliferation inhibition, CAL27 (Example 5); conditions: 48 h
Procedure: (§1) Incubation was continued for 4 h in a cell incubator, an absorbance was measured at 450 nm, and a proliferation inhibition was calculated. Data was presented as mean±SD, and GraphPad Prism 5.0 statistical software was used. A t-test was used for comparison between two groups, while One-way Anova (Dunnett) was used for comparison among a plurality of groups.

[2] = tested on: human papillary thyroid carcinoma cells NPPA87-1; test: CCK8 proliferation inhibition, NPPA87-1; conditions: 48 h
Procedure: as §1

[3] = tested on: human lung adenocarcinoma cells SPC-A1; test: CCK8 proliferation inhibition, SPC-A1; conditions: 48 h
Procedure: as §1

[4] = tested on: human kidney cancer cells Ketr-3; test: CCK8 proliferation inhibition, Ketr-3; conditions: 48 h
Procedure: as §1

[5] = tested on: human kidney clear cell adenocarcinoma cells 786-O; test: CCK8 proliferation inhibition, 786-O; conditions: 48 h
Procedure: as §1

[6] = tested on: human uterine epidermal cancer cells MS751; test: CCK8 proliferation inhibition, MS751; conditions: 48 h
Procedure: as §1

[7] = tested on: human colon cancer cells SW480; test: CCK8 proliferation inhibition, SW480; conditions: 48 h
Procedure: as §1

[8] = tested on: human gastric cancer cells MGC-803; test: CCK8 proliferation inhibition, MGC-803; conditions: 48 h
Procedure: as §1

[9] = tested on: human prostate cancer cells PC-3; test: CCK8 proliferation inhibition, PC-3; conditions: 48 h
Procedure: as §1

[10] = tested on: human multiple myeloma cells LP-1; test: CCK8 proliferation inhibition, LP-1; conditions: 48 h
Procedure: as §1

[11] = tested on: human peripheral blood B lymphocytes RPMI 8226 in multiple myeloma; test: CCK8 proliferation inhibition, RPMI 8226; conditions: 48 h
Procedure: as §1

[12] = tested on: human chronic myeloid leukemia cells K562; test: CCK8 proliferation inhibition, K562; conditions: 48 h
Procedure: as §1

[13] = tested on: human T lymphoblastic leukemia cells Jurkat, Clone E6-1; test: CCK8 proliferation inhibition, Jurkat, Clone E6-1; conditions: 48 h
Procedure: as §1

[14] = tested on: human melanoma A375 cells; test: Transwell metastasis inhibition, A375; conditions: 48 h; for Inhibition (%): A375 metastasis
Procedure: (§2) Melanoma, cervical cancer, ovarian cancer, liver cancer, and lung cancer cells were seeded into transwell chambers, with 100 μL per well. Different doses of the HMMW micropeptide and the novel polypeptide HMMW15-51 were added to each chamber as a treatment group, while no drug was added to a blank group. Then, 0.6 mL of a complete culture medium containing 10% FBS was added to the lower chambers of the transwell to stimulate cell metastasis, and the cells were cultured at 5% CO2 and 37° C. for 48 h. The culture solution was discarded from the wells. The cells were fixed with methanol at room temperature for 30 min, stained with 0.1% crystal violet at room temperature for 10 min, and rinsed with clean water. The upper layer nonmetastatic cells were wiped off with a cotton swab. The cells were observed under a microscope, and four fields of view were selected to take photos and count the cells. A metastasis inhibition (MI) was calculated according to a formula: […]
(§3) where Ntest represents the number of cell metastases in the treatment group, and Ncontrol represents the number of cell metastases in the blank control group.
(§4) Data was presented as mean±SD, and GraphPad Prism 5.0 statistical software was used.

[15] = tested on: human cervical cancer Hela cells; test: Transwell metastasis inhibition, Hela; conditions: 48 h; for Inhibition (%): Hela metastasis; for Number of cell metastases: Hela
Procedure: as §2, §3, §4

[16] = tested on: human liver cancer Hep3B cells; test: Transwell metastasis inhibition, Hep3B; conditions: 48 h; for Inhibition (%): Hep3B metastasis; for Number of cell metastases: Hep3B
Procedure: as §2, §3, §4

SVEAKMQSTSCSVRKSSTVTAWPAVVLLLSWGQRRGG [HMMW15-51]
Inhibition (%) ([1]; CAL27, 50 μM): 77.619 ± 1.804 % | OD ([1]; CAL27, 50 μM): 0.261 ± 0.021 | Inhibition (%) ([1]; CAL27, 75 μM): 81.912 ± 3.381 % | OD ([1]; CAL27, 75 μM): 0.211 ± 0.039 | Inhibition (%) ([1]; CAL27, 100 μM): 87.035 ± 0.828 % | OD ([1]; CAL27, 100 μM): 0.151 ± 0.010 | Inhibition (%) ([2]; NPPA87-1, 50 μM): 58.677 ± 2.767 % | OD ([2]; NPPA87-1, 50 μM): 0.381 ± 0.026 | Inhibition (%) ([2]; NPPA87-1, 75 μM): 70.607 ± 4.793 % | OD ([2]; NPPA87-1, 75 μM): 0.271 ± 0.044 | Inhibition (%) ([2]; NPPA87-1, 100 μM): 76.030 ± 2.061 % | OD ([2]; NPPA87-1, 100 μM): 0.221 ± 0.019 | Inhibition (%) ([3]; SPC-A1, 50 μM): 65.278 ± 4.300 % | OD ([3]; SPC-A1, 50 μM): 0.358 ± 0.044 | Inhibition (%) ([3]; SPC-A1, 75 μM): 74.935 ± 1.734 % | OD ([3]; SPC-A1, 75 μM): 0.259 ± 0.018 | Inhibition (%) ([3]; SPC-A1, 100 μM): 85.368 ± 2.729 % | OD ([3]; SPC-A1, 100 μM): 0.151 ± 0.028 | Inhibition (%) ([4]; Ketr-3, 50 μM): 62.240 ± 2.197 % | OD ([4]; Ketr-3, 50 μM): 0.351 ± 0.020 | Inhibition (%) ([4]; Ketr-3, 75 μM): 73.295 ± 2.760 % | OD ([4]; Ketr-3, 75 μM): 0.248 ± 0.026 | Inhibition (%) ([4]; Ketr-3, 100 μM): 80.797 ± 1.717 % | OD ([4]; Ketr-3, 100 μM): 0.178 ± 0.016 | Inhibition (%) ([5]; 50 μM): 69.140 ± 4.893 % | OD ([5]; 50 μM): 0.341 ± 0.054 | Inhibition (%) ([5]; 75 μM): 71.765 ± 2.634 % | OD ([5]; 75 μM): 0.312 ± 0.029 | Inhibition (%) ([5]; 100 μM): 81.478 ± 3.122 % | OD ([5]; 100 μM): 0.205 ± 0.035 | Inhibition (%) ([6]; MS751, 50 μM): 53.945 ± 3.268 % | OD ([6]; MS751, 50 μM): 0.430 ± 0.031 | Inhibition (%) ([6]; MS751, 75 μM): 61.942 ± 2.517 % | OD ([6]; MS751, 75 μM): 0.355 ± 0.024 | Inhibition (%) ([6]; MS751, 100 μM): 72.296 ± 2.763 % | OD ([6]; MS751, 100 μM): 0.259 ± 0.026 | Inhibition (%) ([7]; SW480, 50 μM): 61.906 ± 1.695 % | OD ([7]; SW480, 50 μM): 0.358 ± 0.016 | Inhibition (%) ([7]; SW480, 75 μM): 71.439 ± 3.113 % | OD ([7]; SW480, 75 μM): 0.269 ± 0.029 | Inhibition (%) ([7]; SW480, 100 μM): 82.991 ± 3.678 % | OD ([7]; SW480, 100 μM): 0.160 ± 0.035 | Inhibition (%) ([8]; MGC-803, 50 μM): 77.852 ± 0.861 % | OD ([8]; MGC-803, 50 μM): 0.254 ± 0.010 | Inhibition (%) ([8]; MGC-803, 75 μM): 83.382 ± 1.747 % | OD ([8]; MGC-803, 75 μM): 0.190 ± 0.020 | Inhibition (%) ([8]; MGC-803, 100 μM): 88.329 ± 0.861 % | OD ([8]; MGC-803, 100 μM): 0.134 ± 0.010 | Inhibition (%) ([9]; PC-3, 50 μM): 71.642 ± 3.715 % | OD ([9]; PC-3, 50 μM): 0.291 ± 0.038 | Inhibition (%) ([9]; PC-3, 75 μM): 76.163 ± 1.651 % | OD ([9]; PC-3, 75 μM): 0.244 ± 0.017 | Inhibition (%) ([9]; PC-3, 100 μM): 81.203 ± 4.742 % | OD ([9]; PC-3, 100 μM): 0.193 ± 0.049 | Inhibition (%) ([10]; LP-1, 50 μM): 66.125 ± 2.629 % | OD ([10]; LP-1, 50 μM): 0.299 ± 0.023 | Inhibition (%) ([10]; LP-1, 75 μM): 77.278 ± 1.054 % | OD ([10]; LP-1, 75 μM): 0.200 ± 0.009 | Inhibition (%) ([10]; LP-1, 100 μM): 83.440 ± 3.052 % | OD ([10]; LP-1, 100 μM): 0.146 ± 0.027 | Inhibition (%) ([11]; RPMI 8226, 50 μM): 70.700 ± 2.799 % | OD ([11]; RPMI 8226, 50 μM): 0.360 ± 0.034 | Inhibition (%) ([11]; RPMI 8226, 75 μM): 80.846 ± 0.908 % | OD ([11]; RPMI 8226, 75 μM): 0.235 ± 0.011 | Inhibition (%) ([11]; RPMI 8226, 100 μM): 87.954 ± 2.000 % | OD ([11]; RPMI 8226, 100 μM): 0.148 ± 0.025 | Inhibition (%) ([12]; K562, 50 μM): 53.567 ± 3.588 % | OD ([12]; K562, 50 μM): 0.597 ± 0.046 | Inhibition (%) ([12]; K562, 75 μM): 59.222 ± 2.991 % | OD ([12]; K562, 75 μM): 0.524 ± 0.038 | Inhibition (%) ([12]; K562, 100 μM): 68.197 ± 4.053 % | OD ([12]; K562, 100 μM): 0.409 ± 0.052 | Inhibition (%) ([13]; Clone E6-1, 50 μM): 55.014 ± 5.442 % | OD ([13]; Clone E6-1, 50 μM): 0.486 ± 0.059 | Inhibition (%) ([13]; Clone E6-1, 75 μM): 62.388 ± 4.707 % | OD ([13]; Clone E6-1, 75 μM): 0.406 ± 0.051 | Inhibition (%) ([13]; Clone E6-1, 100 μM): 74.545 ± 4.881 % | OD ([13]; Clone E6-1, 100 μM): 0.275 ± 0.053 | Number of cell metastases ([14]; A375, 25 μmol/L): 316 ± 4.57 | Number of cell metastases ([14]; A375, 50 μmol/L): 61 ± 30.07 | Inhibition (%) ([14]; 25 μmol/L): 46.40*** % | Inhibition (%) ([14]; 50 μmol/L): 89.63*** % | Inhibition (%) ([15]; 25 μmol/L): 56.40*** % | Inhibition (%) ([15]; 50 μmol/L): 57.13*** % | Number of cell metastases ([15]; 25 μmol/L): 448 ± 7.96 | Number of cell metastases ([15]; 50 μmol/L): 441 ± 22.66 | Inhibition (%) ([16]; 25 μmol/L): 48.90*** % | Inhibition (%) ([16]; 50 μmol/L): 89.65*** % | Number of cell metastases ([16]; 25 μmol/L): 583 ± 75.82 | Number of cell metastases ([16]; 50 μmol/L): 50 ± 28.14
